One assay concerns the target T1, Flag-MINDY1 full length (UniProt Q8N5J2).
T1 sequence: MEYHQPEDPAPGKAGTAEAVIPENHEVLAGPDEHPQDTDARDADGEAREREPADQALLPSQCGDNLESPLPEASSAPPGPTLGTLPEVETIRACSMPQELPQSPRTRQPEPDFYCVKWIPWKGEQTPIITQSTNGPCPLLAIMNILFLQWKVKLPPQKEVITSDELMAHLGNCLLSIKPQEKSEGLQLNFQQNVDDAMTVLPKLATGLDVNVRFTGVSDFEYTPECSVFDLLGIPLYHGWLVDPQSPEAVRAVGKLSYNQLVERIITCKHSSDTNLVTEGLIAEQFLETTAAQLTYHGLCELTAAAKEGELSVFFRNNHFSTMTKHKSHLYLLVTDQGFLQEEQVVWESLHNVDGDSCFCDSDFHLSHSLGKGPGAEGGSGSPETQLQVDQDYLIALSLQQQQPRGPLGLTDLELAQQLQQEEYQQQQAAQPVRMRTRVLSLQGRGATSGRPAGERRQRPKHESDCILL
Put plainly: co-IP; HEK293 cells transfected with 2 µg Flag-MINDY1 together with Myc-YAP full length or mutants; 24 h; NP-40 lysis buffer; IP with Flag antibody, detection with Myc antibody.

The chains behind the UniProt entries cited, without tags or fusion partners.
UniProt P46937: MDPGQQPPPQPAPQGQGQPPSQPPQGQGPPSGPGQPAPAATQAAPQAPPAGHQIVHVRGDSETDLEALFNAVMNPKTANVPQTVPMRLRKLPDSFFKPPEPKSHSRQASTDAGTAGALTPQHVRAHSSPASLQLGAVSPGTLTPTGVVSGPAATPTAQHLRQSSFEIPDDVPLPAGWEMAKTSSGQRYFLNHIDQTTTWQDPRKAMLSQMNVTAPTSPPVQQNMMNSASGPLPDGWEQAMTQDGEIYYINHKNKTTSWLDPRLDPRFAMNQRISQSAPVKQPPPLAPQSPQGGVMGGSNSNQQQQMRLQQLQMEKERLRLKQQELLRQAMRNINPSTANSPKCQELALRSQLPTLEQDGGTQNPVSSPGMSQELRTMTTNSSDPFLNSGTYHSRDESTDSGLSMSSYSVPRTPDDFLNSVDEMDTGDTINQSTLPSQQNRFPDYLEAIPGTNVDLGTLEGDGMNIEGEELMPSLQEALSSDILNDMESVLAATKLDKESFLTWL

Assay [1] has as its target Yes-associated protein (YAP) (endogenous, T24 cells) (human (endogenous in T24)) (UniProt P46937). In words: co-IP; endogenous proteins in T24 cells; harvested with RIPA lysis buffer; Co-IP with antibody as indicated; Protein A/G PLUS-Agarose, 4 °C.
A further assay has as its target Myc-YAP full length (UniProt P46937). In words: co-IP; HEK293 cells transfected with 2 µg Myc-YAP together with Flag-MINDY1 full length or mutants; 24 h; NP-40 lysis buffer; IP with Myc antibody, detection with Flag antibody.

No constants are given. Whether binding was seen depends on the method and setting. In cells and extracts the contact can be indirect. Some entries that bind do so weakly or less than the wild type. For part of these data: Sequences can lack the tags named with a protein.

Turning to “Myc-YAP full length (from UniProt P46937 1-504)”, the binding result with Flag-MINDY1 full length is reported as “binds”.

B1: MINDY1 (endogenous, T24 cells) (enzyme, UniProt Q8N5J2 1-469)
chain: T1 sequence
In the case of B1, the binding result in assay [1] is “binds”.

B2: Flag-MINDY1 full length (enzyme, UniProt Q8N5J2 1-469)
chain: T1 sequence
Regarding B2, in the assay with Myc-YAP full length, the binding result is on record as “binds”.
